The text below walks through data of article PMC8384837.

Changes are numbered by the printed parent chain. The list shows a part of the results. For part of these data: At the low end of the ranking the order means little. For part of these data: Construct or isoform of the protein are uncertain. A value given as a limit tells only on which side of the number the result lay.

Conditions in all cases: yeast three-hybrid, YBZ-1, SC-Leu-His + 0.5 mM 3-AT, 4 days
In test [1] the target is T1, PUM1 PUF domain R1-QFR R2-VFQ R7-NPG S863Q + R864F + Q867R + N899V + Y900F + S1079N + N1080P + E1083G (UniProt Q14671).
T1 sequence: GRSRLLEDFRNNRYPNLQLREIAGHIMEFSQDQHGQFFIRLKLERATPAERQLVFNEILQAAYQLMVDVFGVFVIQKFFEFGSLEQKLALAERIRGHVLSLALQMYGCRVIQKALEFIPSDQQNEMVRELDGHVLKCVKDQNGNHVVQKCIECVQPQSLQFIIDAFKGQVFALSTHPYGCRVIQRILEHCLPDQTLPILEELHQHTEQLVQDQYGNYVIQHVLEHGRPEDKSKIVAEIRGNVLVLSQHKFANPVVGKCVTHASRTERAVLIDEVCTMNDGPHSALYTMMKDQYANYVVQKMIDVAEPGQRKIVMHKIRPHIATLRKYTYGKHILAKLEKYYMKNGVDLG

For test [2], the target named is T2, PUM1 PUF domain R2-VFQ R3-THE R4-TFR N899V + Y900F + C935T + R936H + Q939E + N971T + H972F + Q975R (UniProt Q14671).
T2 sequence: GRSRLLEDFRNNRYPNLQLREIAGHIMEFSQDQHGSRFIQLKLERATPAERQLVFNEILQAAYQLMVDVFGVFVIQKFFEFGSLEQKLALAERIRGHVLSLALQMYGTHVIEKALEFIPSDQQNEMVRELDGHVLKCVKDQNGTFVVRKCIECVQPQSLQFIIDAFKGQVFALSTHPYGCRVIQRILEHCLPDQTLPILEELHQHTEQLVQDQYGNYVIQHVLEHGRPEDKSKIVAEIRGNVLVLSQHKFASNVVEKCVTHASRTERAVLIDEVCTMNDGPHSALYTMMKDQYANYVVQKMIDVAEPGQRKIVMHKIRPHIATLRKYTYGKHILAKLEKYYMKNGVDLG

Test [3] concerns the target T3, PUM1 PUF domain R3-THE R4-TFR C935T + R936H + Q939E + N971T + H972F + Q975R (UniProt Q14671).
T3 sequence: T2 sequence with V72N, F73Y

For test [4], the target named is T4, PUM1 PUF domain R3-THE R4-TFR R7-NPG C935T + R936H + Q939E + N971T + H972F + Q975R + S1079N + N1080P + E1083G (Homo sapiens) (UniProt Q14671).
T4 sequence: T2 sequence with V72N, F73Y, S252N, N253P, E256G

In test [5] the target is T5, PUM1 PUF domain R5-PHQ R6-SWD C1007P + R1008H + N1043S + Y1044W + Q1047D (UniProt Q14671).
T5 sequence: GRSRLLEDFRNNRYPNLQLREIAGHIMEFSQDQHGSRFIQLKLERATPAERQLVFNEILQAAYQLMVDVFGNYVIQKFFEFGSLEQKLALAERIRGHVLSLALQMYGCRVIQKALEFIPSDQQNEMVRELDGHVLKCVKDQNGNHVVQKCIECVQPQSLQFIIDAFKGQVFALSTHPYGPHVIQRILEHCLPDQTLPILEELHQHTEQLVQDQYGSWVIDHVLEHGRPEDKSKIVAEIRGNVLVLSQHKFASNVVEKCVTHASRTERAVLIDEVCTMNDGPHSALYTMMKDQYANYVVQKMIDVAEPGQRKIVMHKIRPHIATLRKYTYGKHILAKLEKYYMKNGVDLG

The target of test [6] is T6, PUM1 PUF domain R6-SWD R7-NPG N1043S + Y1044W + Q1047D + S1079N + N1080P + E1083G (Homo sapiens) (UniProt Q14671).
T6 sequence: T5 sequence with P180C, H181R, S252N, N253P, E256G

For test [7], the target named is T7, PUM1 PUF domain R6-SWD R7-NPG N1043S + Y1044W + Q1047D + S1079N + N1080P + E1083G (UniProt Q14671).
T7 sequence: T5 sequence with P180C, H181R, S252N, N253P, E256G

Test [8] concerns the target T8, PUM1 PUF domain R3-THE R4-TFR R7-NPG C935T + R936H + Q939E + N971T + H972F + Q975R + S1079N + N1080P + E1083G (UniProt Q14671).
T8 sequence: T2 sequence with V72N, F73Y, S252N, N253P, E256G

The target in test [9] is T9, PUM1 PUF domain R6-AWS N1043A + Y1044W + Q1047S (Homo sapiens) (UniProt Q14671).
T9 sequence: T5 sequence with P180C, H181R, S216A, D220S

In test [10] the target is T10, PUM1 PUF domain R6-FRE N1043F + Y1044R + Q1047E (UniProt Q14671).
T10 sequence: T5 sequence with P180C, H181R, S216F, W217R, D220E

Test [11] deals with T11, PUM1 PUF domain R6-FRS N1043F + Y1044R + Q1047S (UniProt Q14671).
T11 sequence: T5 sequence with P180C, H181R, S216F, W217R, D220S

Test [12] addresses T12, PUM1 PUF domain R6-NFW Y1044F + Q1047W (UniProt Q14671).
T12 sequence: T5 sequence with P180C, H181R, S216N, W217F, D220W

Test [13] concerns the target T13, PUM1 PUF domain R6-RPG N1043R + Y1044P + Q1047G (UniProt Q14671).
T13 sequence: T5 sequence with P180C, H181R, S216R, W217P, D220G

Test [14] has as its target T14, PUM1 PUF domain R6-SFV N1043S + Y1044F + Q1047V (UniProt Q14671).
T14 sequence: T5 sequence with P180C, H181R, W217F, D220V

The target in test [15] is T15, PUM1 PUF domain R6-SRE N1043S + Y1044R + Q1047E (UniProt Q14671).
T15 sequence: T5 sequence with P180C, H181R, W217R, D220E

For test [16], the target named is T16, PUM1 PUF domain R6-TFE N1043T + Y1044F + Q1047E (UniProt Q14671).
T16 sequence: T5 sequence with P180C, H181R, S216T, W217F, D220E

In test [17] the target is T17, PUM1 PUF domain R6-TRE N1043T + Y1044R + Q1047E (UniProt Q14671).
T17 sequence: T5 sequence with P180C, H181R, S216T, W217R, D220E

Regarding “GGCUAGAACUAGUGGAUCCCCCGGCGCCCGGCGGCUCGAGCCCGGGUAAGUUUAGGUAGUCUGCAUGCCGCCGGGCGCCAUGCCUGCAGGUCGACUCUAGAAAACAUG”, the binding signal (log2 enrichment (interaction score)) in test [1] is -6.37; in test [2], -5.78; in test [3] it was -6.64; in [4] it was -1.89; in test [5], -8.66; in test [6], -1.78.

As for “GGCUAGAACUAGUGGAUCCCCCGGCGCCCGGCGGCUCGAGCCCGGGUAAGUGGACGUUGUCUGCAUGCCGCCGGGCGCCAUGCCUGCAGGUCGACUCUAGAAAACAUG”, the binding signal (log2 enrichment (interaction score)) in [1] is -6.38; in [2] it was -4.94; in test [3] it was -7.96; in [5] it was -8.4.

Turning to “GGCUAGAACUAGUGGAUCCCCCGGCGCCCGGCGGCUCGAGCCCGGGUAAGUAUACAAAGUCUGCAUGCCGCCGGGCGCCAUGCCUGCAGGUCGACUCUAGAAAACAUG”, the binding signal (log2 enrichment (interaction score)) was -4.28 in test [1]; -5.51 in [2]; -7.52 in [3]; -1.39 in test [4]; -8.73 in [5].

“GGCUAGAACUAGUGGAUCCCCCGGCGCCCGGCGGCUCGAGCCCGGGUAAGUUAAAAUAGUCUGCAUGCCGCCGGGCGCCAUGCCUGCAGGUCGACUCUAGAAAACAUG”: the binding signal (log2 enrichment (interaction score)) in test [1] was -5.22; in [2] it was -5.81; in test [3], -7.43; in test [4], less than -1.63; in [5], -7.56; in test [7] it was -2.3.

Turning to “GGCUAGAACUAGUGGAUCCCCCGGCGCCCGGCGGCUCGAGCCCGGGUAAGAGGAAAAAGUCUGCAUGCCGCCGGGCGCCAUGCCUGCAGGUCGACUCUAGAAAACAUG”, the binding signal (log2 enrichment (interaction score)) in [1] is -4.87; in [2] it was -6.43; in [3], -8.26; in test [4] it was -1.51; in test [5], less than -8.49; in test [6] it was less than -1.56.

With “GGCUAGAACUAGUGGAUCCCCCGGCGCCCGGCGGCUCGAGCCCGGGUAAGUAUACGAAGUCUGCAUGCCGCCGGGCGCCAUGCCUGCAGGUCGACUCUAGAAAACAUG”, the binding signal (log2 enrichment (interaction score)) in test [1] was less than -6.18; in test [2] it was -5; in test [3], -6.64; in test [8] it was -2.26.

On to “GGCUAGAACUAGUGGAUCCCCCGGCGCCCGGCGGCUCGAGCCCGGGUAAGUUUAAGUCGUCUGCAUGCCGCCGGGCGCCAUGCCUGCAGGUCGACUCUAGAAAACAUG”, for which the binding signal (log2 enrichment (interaction score)) in test [1] is -5.74; in test [2], -5.29; in test [3], -7.04; in test [4] it was -0.97; in test [5] it was -8.69; in test [6] it was -1.15.

Take “GGCUAGAACUAGUGGAUCCCCCGGCGCCCGGCGGCUCGAGCCCGGGUAAGUGCAAAUAGUCUGCAUGCCGCCGGGCGCCAUGCCUGCAGGUCGACUCUAGAAAACAUG”: the binding signal (log2 enrichment (interaction score)) was -4.41 in [1]; -6 in [2]; -5.18 in test [3]; -1.53 in test [4]; -3.27 in [5]; -4.65 in test [9]. Also, the binding signal (log2 enrichment (interaction score)) in test [10] was less than -7.98; in [11], less than -7.79; in test [12] it was -4.13; in [13], less than -8.56; in test [14] it was less than -8.16; in test [15] it was less than -7.69. In addition, the binding signal (log2 enrichment (interaction score)) is -5.76 in test [16] and less than -7.55 in test [17].

“GGCUAGAACUAGUGGAUCCCCCGGCGCCCGGCGGCUCGAGCCCGGGUAAGUUUAAGGAGUCUGCAUGCCGCCGGGCGCCAUGCCUGCAGGUCGACUCUAGAAAACAUG”: the binding signal (log2 enrichment (interaction score)) in test [1] was -5.79; in test [2] it was -6.18; in test [3], -7.07; in [4], less than -1.14; in test [5], -7.95; in test [6], -1.29.
